PubChem BioAssay AID493246 – Drosophila RNAi Screening Center – 2011

- Purpose: 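Genome-wide search for dsRNAs that reduce cell number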 (primary screen)
- Cells: Drosophila Kc and S2R+ cells
- Reagent: long dsRNA against Drosophila genes
- Read-out: 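Cell number per well after knock-down, printed as raw plate values; calls were based on per-plate z-scores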
- Direction: Kc cell number and S2R+ cell number: higher = more cells remaining
- Active means: 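Counted as a hit if cell number falls by a z-score of at least 3 within its plate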
The screen tested about 21,000 reagents; shown is an unselected part of those that have a named target and a result. Over the whole deposit, 429 (2%) were called active. 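Values are raw and not normalised between plates; calls rest on per-plate z-scores that were not deposited.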 Entries without a mark were called inactive. A plus sign joins genes that one reagent is predicted to hit. Not stated in the record: the amount of reagent, the time to read-out.

| gene | dsRNA | Kc cell number, rep 1 | Kc cell number, rep 2 | S2R+ cell number, rep 1 | S2R+ cell number, rep 2 |
| --- | --- | --- | --- | --- | --- |
| CG15386 + CG42371 | DRSC00400 | 1.51e6 | 1.62e6 | 1.04e6 | 1.17e6 |
| Spn38F | DRSC03616 | 1.72e6 | 1.80e6 | 1.27e6 | 2.75e5 |
| CG10822 | DRSC06005 | 1.52e6 | 1.58e6 | 1.13e6 | 1.30e6 |
| CG34305 | DRSC11995 | 1.51e6 | 1.68e6 | 1.21e6 | 1.41e6 |
| meng | DRSC02134 | 1.73e6 | 1.78e6 | 1.26e6 | 1.46e6 |
| CG3149 | DRSC17732 | 6.25e5 | – | 8.56e5 | – |
| Myo31DF | DRSC03376 | 1.20e6 | 9.56e5 | 6.69e5 | 6.22e5 |
| dgo | DRSC06134 | 1.46e6 | 1.47e6 | 1.23e6 | 1.40e6 |
| CG32219 | DRSC09641 | 1.32e6 | 1.55e6 | 1.08e6 | 1.31e6 |
| CG7213 | DRSC10787 | 1.60e6 | 1.50e6 | 1.06e6 | 1.12e6 |
| CG13510 | DRSC04152 | 1.54e6 | 1.58e6 | 1.36e6 | 1.27e6 |
| CG14052 | DRSC17907 | 1.41e6 | 1.51e6 | 1.15e6 | 1.29e6 |
| CG14052 | DRSC18192 | 1.63e6 | 1.82e6 | 1.12e6 | 1.19e6 |
| CG8642 | DRSC07228 | 1.80e6 | 1.81e6 | 1.44e6 | 1.64e6 |
| Mtpalpha | DRSC01994 | 1.26e6 | 1.31e6 | 1.13e6 | 1.19e6 |
| VAChT + ChAT | DRSC13312 | 1.60e6 | 1.62e6 | 1.15e6 | 1.16e6 |
| CG2938 | DRSC18243 | 5.71e5 | – | 8.79e5 | – |
| ix | DRSC06325 | 1.42e6 | 1.42e6 | 1.09e6 | 1.25e6 |
| CG15408 | DRSC00423 | 1.46e6 | 1.41e6 | 1.10e6 | 1.28e6 |
| glob2 | DRSC12560 | 1.42e6 | 1.65e6 | 1.36e6 | 1.59e6 |
| CG11892 | DRSC14428 | 5.02e5 | – | 8.12e5 | – |
| Rdh | DRSC08063 | 6.99e5 (active) | 6.75e5 | 5.53e5 | 6.27e5 |
| Rdh | DRSC08434 | 2.94e5 (active) | 3.13e5 | 5.67e5 | 7.05e5 |
| CG5068 | DRSC10476 | 1.30e6 | 1.35e6 | 1.21e6 | 1.18e6 |
